# No constants are given. Whether binding was seen depends on the method and setting. In cells and extracts the contact can be indirect. Some binding calls cover weakened binding; strength is not graded here. Where a sequence is shown, tags or fusion partners need not be part of it.
# T1: GST-tagged BAI1 1431-1582 (mouse) (UniProt Q3UHD1)
# T1 sequence: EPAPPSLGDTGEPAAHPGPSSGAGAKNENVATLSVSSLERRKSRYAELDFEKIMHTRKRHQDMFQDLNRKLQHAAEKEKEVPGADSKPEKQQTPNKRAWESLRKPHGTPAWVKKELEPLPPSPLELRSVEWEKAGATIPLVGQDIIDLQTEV
# T2: BAI1-EBD R1489A (mouse) (UniProt Q3UHD1)
# T2 sequence: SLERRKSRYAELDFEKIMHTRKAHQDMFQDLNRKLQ
# T3: BAI1 ELMO-binding domain (aa 1467-1502), pull-down construct (mouse) (UniProt Q3UHD1)
# T3 sequence: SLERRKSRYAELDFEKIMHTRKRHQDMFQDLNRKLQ
# Tests used:
# Assay in all cases: pull-down; GST-tagged BAI proteins pre-loaded on GSH-sepharose 4B beads, incubated with lysates of HEK293T cells overexpressing Flag-tagged ELMO2 proteins; lysis buffer 50 mM HEPES pH 7.4, 150 mM NaCl, 1 mM EGTA, 10% glycerol, 1% Triton; 4 °C, 1 h; anti-Flag western blot; only the target purified
# [1] = target: T1, GST-tagged BAI1 1431-1582 (mouse)
# BAI1-EBD R1489A (mouse) = target: T2, BAI1-EBD R1489A (mouse)
# [2] = target: T3, BAI1 ELMO-binding domain (aa 1467-1502), pull-down construct (mouse)
binder,measurement,setting,value
"Flag-tagged RBD-ARR-ELMO tandem of ELMO2 (aa 1-520) (domain or fragment, UniProt Q96JJ3 1-520) MPPPSDIVKVAIEWPGANAQLLEIDQKRPLASIIKEVCDGWSLPNPEYYTLRYADGPQLYITEQTRSDIKNGTILQLAISPSRAARQLMERTQSSNMETRLDAMKELAKLSADVTFATEFINMDGIIVLTRLVESGTKLLSHYSEMLAFTLTAFLELMDHGIVSWDMVSITFIKQIAGYVSQPMVDVSILQRSLAILESMVLNSQSLYQKIAEEITVGQLISHLQVSNQEIQTYAIALINALFLKAPEDKRQDMANAFAQKHLRSIILNHVIRGNRPIKTEMAHQLYVLQVLTFNLLEERMMTKMDPNDQAQRDIIFELRRIAFDAESDPSNAPGSGTEKRKAMYTKDYKMLGFTNHINPAMDFTQTPPGMLALDNMLYLAKVHQDTYIRIVLENSSREDKHECPFGRSAIELTKMLCEILQVGELPNEGRNDYHPMFFTHDRAFEELFGICIQLLNKTWKEMRATAEDFNKVMQVVREQITRALPSKPNSLDQFKSKLRSLSYSEILRLRQSERMSQDD",binding,[1],binds
same,binding,BAI1-EBD R1489A (mouse),no binding
same,binding,[2],binds

# Reference: PMC6318265, “Structure of BAI1/ELMO2 complex reveals an action mechanism of adhesion GPCRs via ELMO family scaffolds” (Nature Communications, 2019)
